Test results taken from patent US5519000A (Centecor, Inc., priority 1994, dated 1996).

Experiment: general procedure: Boc solid-phase peptide synthesis; 4-Methyl benzhydrylamine resin
Settings: whole synthesis

Substance	crude mass (scale 0.5 mmol) [g]	crude mass (scale 0.51 mmol) [g]
Acetyl-aspartyl-isoleucyl-leucyl-leucyl-threonyl-glutaminyl-seryl-prolyl-alanyl-isoleucyl-leucyl-seryl-valyl-seryl-prolyl-glycyl-glutamyl-arginyl-valyl-seryl-phenylalanyl-serine-amide	1.06	
Acetyl-threonyl-aspartyl-leucyl-arginyl-threonyl-glutamyl-aspartyl-threonyl-glycyl-valyl-tyrosyltyrosyl-cysteinyl-seryl-arginyl-asparaginyl-tyrosyl-tyrosyl-glycyl-seryl-threonyl-tyrosine-amide	1.07	
Arginyl-glutaminyl-seryl-prolyl-glutamyl-lysyl-glycyl-leucyl-glutamyl-tryptophyl-valyl-alanyl-glutamyl-isoleucyl-arginyl-seryl-lysyl-seryl-isoleucine- amide		0.56
Acetyl-tyrosyl-tyrosyl-seryl-glutaminyl-glutaminyl-seryl-histidyl-seryl-tryptophyl-prolyl-phenylalanyl-threonyl-phenylalanine-amide	0.592	
Acetyl-isoleucyl-asparaginyl-threonyl-valyl-glutamyl-seryl-glutamyl-aspartyl-isoleucyl-alanyl-aspartyl-tyrosyl-tyrosyl-cysteinyl-glutaminyl-glutaminyl-seryl-histidyl-seryl-tryptophan-amide	1.1	
PEPTIDE1{[ac].L.I.K.Y.A.S.Q.S.M.S.G.I.[am]}$$$$V2.0	0.61	
PEPTIDE1{[ac].F.S.N.H.W.M.N.W.V.R.[am]}$$$$V2.0	1.03	
Acetyl-tyrosyl-alanyl-glutamyl-seryl-valyl-lysyl-glycyl-arginyl-phenylalanyl-threonyl-isoleucyl-seryl-arginyl-aspartyl-aspartyl-seryl-lysyl-seryl-alanyl-valyl-tyrosyl-leucine-amide	1.220	

Strings that start with PEPTIDE1 are HELM notation: dots part the residues, brackets hold end groups and non-standard residues.
